Test results: article PMC8417012
These are yes or no findings as the source states them, for the method shown. A result given as binding can be weak or reduced; the word gives no strength. For part of these data: Where a sequence is shown, tags or fusion partners need not be part of it.

The chains behind the UniProt entries cited, without tags or fusion partners. Where a name states a change or a piece, a line headed by the entry shows the natural chain unless it says otherwise.
UniProt Q9LDW5: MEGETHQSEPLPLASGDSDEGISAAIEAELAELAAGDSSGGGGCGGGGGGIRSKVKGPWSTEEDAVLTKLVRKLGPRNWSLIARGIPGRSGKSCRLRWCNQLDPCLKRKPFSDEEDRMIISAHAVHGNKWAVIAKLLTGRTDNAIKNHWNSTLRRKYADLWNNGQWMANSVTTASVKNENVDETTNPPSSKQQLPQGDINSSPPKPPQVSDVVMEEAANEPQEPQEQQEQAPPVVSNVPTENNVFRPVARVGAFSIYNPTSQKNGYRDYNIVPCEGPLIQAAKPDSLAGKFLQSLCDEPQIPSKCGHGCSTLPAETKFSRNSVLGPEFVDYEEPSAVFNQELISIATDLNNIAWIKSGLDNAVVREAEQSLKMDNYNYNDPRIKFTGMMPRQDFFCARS

Columns and labels:
[1] = target: His:BPM1 (Arabidopsis thaliana) (UniProt Q8L765); assay: pull-down; His:BPM proteins kept on Ni-NTA agarose beads, incubated with eluted GST-tagged proteins in 0.1 M Tris pH 7.5, 150 mM NaCl, 0.5% NP-40, PMSF, 2 h at 4°C, three washes; blots with anti-GST and anti-His; both purified
[2] = target: His:BPM3 (Arabidopsis thaliana) (UniProt O22286); assay: as above
[3] = target: His:BPM5 (Arabidopsis thaliana) (UniProt Q1EBV6); assay: as above
[4] = target: T1, BPM1 (yeast two-hybrid fusion) (Arabidopsis thaliana) (UniProt Q8L765); assay: two-hybrid; yeast; bait vector pBTM112-D9, prey plasmid pACT2; growth on SDIV medium without uracil and His; spots photographed 1 week after plating; which partner was bait is not stated
T1 sequence: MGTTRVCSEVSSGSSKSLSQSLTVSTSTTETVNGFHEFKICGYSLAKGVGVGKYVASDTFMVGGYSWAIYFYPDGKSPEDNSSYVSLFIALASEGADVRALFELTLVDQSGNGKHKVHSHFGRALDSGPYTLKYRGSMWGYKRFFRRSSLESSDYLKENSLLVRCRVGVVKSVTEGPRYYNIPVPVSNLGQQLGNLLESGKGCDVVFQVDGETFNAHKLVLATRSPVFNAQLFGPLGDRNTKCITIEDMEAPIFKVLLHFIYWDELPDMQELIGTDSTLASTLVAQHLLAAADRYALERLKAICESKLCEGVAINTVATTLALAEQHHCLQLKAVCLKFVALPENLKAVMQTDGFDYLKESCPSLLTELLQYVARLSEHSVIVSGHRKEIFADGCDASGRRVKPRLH

[5] = target: T2, BPM2 (yeast two-hybrid fusion) (Arabidopsis thaliana) (UniProt Q9M8J9); assay: as above
T2 sequence: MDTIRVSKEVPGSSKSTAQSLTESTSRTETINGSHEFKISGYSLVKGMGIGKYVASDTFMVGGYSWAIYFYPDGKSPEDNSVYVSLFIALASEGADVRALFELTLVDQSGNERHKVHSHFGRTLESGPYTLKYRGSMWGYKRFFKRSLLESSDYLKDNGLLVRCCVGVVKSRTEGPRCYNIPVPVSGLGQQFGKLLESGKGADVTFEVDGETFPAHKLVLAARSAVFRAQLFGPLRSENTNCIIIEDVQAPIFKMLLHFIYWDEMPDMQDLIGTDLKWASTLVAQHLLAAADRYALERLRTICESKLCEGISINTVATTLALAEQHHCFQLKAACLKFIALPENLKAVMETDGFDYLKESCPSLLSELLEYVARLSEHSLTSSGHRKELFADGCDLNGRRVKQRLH

[6] = target: T3, BPM3 (yeast two-hybrid fusion) (Arabidopsis thaliana) (UniProt O22286); assay: as above
T3 sequence: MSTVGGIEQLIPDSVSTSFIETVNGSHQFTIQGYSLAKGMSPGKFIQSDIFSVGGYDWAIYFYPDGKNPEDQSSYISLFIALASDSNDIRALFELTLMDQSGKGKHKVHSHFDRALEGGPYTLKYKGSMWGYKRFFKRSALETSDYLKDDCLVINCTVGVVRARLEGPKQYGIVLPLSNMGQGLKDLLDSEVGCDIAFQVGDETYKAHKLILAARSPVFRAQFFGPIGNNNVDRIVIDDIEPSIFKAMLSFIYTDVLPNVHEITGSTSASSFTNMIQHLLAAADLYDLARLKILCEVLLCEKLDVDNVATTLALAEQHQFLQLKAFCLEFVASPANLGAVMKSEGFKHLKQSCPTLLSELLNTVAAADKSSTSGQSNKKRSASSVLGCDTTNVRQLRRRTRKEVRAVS

[7] = target: T4, BPM4 (yeast two-hybrid fusion) (Arabidopsis thaliana) (UniProt Q9SRV1); assay: as above
T4 sequence: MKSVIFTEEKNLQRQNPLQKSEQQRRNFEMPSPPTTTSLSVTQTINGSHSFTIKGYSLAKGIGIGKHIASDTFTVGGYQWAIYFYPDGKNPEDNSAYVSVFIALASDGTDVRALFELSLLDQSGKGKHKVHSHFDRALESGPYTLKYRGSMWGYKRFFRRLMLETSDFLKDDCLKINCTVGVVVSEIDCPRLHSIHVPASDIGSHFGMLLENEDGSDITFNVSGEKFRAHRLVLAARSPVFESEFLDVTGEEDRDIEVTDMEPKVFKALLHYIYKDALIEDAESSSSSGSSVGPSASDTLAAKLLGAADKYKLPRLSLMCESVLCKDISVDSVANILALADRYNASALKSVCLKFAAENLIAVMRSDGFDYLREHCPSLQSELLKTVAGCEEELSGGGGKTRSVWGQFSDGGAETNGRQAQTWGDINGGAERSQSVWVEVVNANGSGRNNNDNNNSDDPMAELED

[8] = target: T5, BPM5 (yeast two-hybrid fusion) (Arabidopsis thaliana) (UniProt Q1EBV6); assay: as above
T5 sequence: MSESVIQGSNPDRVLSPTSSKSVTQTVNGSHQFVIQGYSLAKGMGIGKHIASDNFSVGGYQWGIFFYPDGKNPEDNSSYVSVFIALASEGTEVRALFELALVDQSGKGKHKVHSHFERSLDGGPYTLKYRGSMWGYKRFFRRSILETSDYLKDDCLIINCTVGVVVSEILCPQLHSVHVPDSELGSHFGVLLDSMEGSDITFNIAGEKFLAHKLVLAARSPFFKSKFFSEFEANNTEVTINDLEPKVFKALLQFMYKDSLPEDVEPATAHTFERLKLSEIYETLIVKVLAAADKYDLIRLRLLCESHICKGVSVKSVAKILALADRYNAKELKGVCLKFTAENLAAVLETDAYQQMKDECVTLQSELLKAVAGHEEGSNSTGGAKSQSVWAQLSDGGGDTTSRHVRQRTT

[9] = target: T6, BPM6 (yeast two-hybrid fusion) (Arabidopsis thaliana) (UniProt A1L4W5); assay: as above
T6 sequence: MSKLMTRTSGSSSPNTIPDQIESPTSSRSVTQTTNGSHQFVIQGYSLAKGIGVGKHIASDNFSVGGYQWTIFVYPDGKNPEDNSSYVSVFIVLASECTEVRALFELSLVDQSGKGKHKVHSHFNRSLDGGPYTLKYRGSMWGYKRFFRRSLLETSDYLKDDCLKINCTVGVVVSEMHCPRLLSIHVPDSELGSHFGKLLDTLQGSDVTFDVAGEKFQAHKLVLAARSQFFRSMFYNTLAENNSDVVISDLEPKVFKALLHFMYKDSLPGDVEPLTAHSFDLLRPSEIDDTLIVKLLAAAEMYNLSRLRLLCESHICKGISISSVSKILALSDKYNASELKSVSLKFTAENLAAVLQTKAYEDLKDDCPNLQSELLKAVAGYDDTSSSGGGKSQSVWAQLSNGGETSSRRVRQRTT

Row | binding [1] | binding [2] | binding [3] | binding [4] | binding [5] | binding [6] | binding [7] | binding [8] | binding [9] | Substance
1 | binds | binds | binds | – | – | – | – | – | – | GST:MYB109 (from UniProt Q9LDW5)
2 | – | – | – | binds | binds | binds | binds | binds | binds | MYB109 (yeast two-hybrid fusion) (from UniProt Q9LDW5)
